Laboratory results as given in patent EP1688137A1, “SPM 927 for add-on therapy of schizophrenia” (SCHWARZ PHARMA AG, priority 2005, dated 2006).
At least one structure is not confirmed: it was looked up by name or label, or the drawing left a doubt.

Test system: C57BL/6J mice
Assay: prepulse inhibition (PPI) of the acoustic startle reflex, animal model for schizophrenia
Type: in vivo
Details: clozapine 3 mg/kg, in comparison to vehicle, p<0.05
Method: Some anti-epileptic drugs have proven pre-clinical and/or clinical efficacy as add-on therapy for schizophrenia. SPM 927 was tested in a simple animal model with predictive validity for schizophrenia (i.e. prepulse inhibition (PPI) of the acoustic startle reflex). SPM 927 was tested alone and in combination with the atypical antipsychotic drug clozapine.
The acoustic startle is an unconditioned reflex response to an external auditory stimulation. PPI refers to the reduction in the startle response caused by the presentation of a low-intensity auditory stimulus prior to the startle stimulus. The PPI paradigm is the choice for the study of schizophrenia and antipsychotic action due to the similarities between the results from human and rodent studies. Antipsychotic drugs, such as clozapine, result in a dose-dependent increase in PPI in mice. […]
SPM 927 was dissolved in Saline (0.9% NaCl in sterile H2O). […] Doses are expressed as mg of salt. […]
Animals were placed in the PPI chambers (Med Associates) for a 5 min session of white noise (70 dB) habituation. […] Each trial started with a 50 ms null period during which baseline movements are recorded. There was a subsequent 20 ms period during which prepulse stimuli were presented and responses to the prepulse measured. After further 100 ms the startle stimuli were presented for 40 ms and responses recorded for 100 ms from startle onset. […]

CN1CCN(C2=Nc3cc(Cl)ccc3Nc3ccccc32)CC1 [CLOZ, clozapine, reference compound]
effect on prepulse inhibition: significant improvement in prepulse inhibition
